Laboratory results as given in patent publication US7199244B2, “Cyclic amine derivatives and methods of use” (Amgen, priority 2003, dated 2007).
Some entries share one result that the patent states for a list of compounds.

Legend:
[1] = target: T1, hB1 receptor (Homo sapiens, UniProt P46663); experiment: In vitro assay of human B1 receptor function using calcium flux (aequorin); type: cell-based; conditions: CHO D-/hB1/Aequorin cells, 20 nM des-Arg10-Kallidin (EC80); read-out: binding IC50's to hB1 receptor function
T1 construct: expressed in transfected cells; host or cells: CHO D- cells stably expressing hB1 and aequorin
T1 sequence (P46663 1-353): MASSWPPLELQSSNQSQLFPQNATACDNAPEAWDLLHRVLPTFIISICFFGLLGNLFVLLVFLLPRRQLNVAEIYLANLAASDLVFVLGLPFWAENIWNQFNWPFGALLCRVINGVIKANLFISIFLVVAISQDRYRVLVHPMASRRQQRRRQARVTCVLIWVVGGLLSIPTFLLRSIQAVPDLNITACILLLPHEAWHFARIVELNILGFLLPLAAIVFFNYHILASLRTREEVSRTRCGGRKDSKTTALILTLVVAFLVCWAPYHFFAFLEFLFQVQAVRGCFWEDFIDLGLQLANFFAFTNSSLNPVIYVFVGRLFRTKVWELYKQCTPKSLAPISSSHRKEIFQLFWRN

[2] = target: T2, human bradykinin B1 receptor (Homo sapiens, UniProt P46663); experiment: Radioligand binding assay for human B1 bradykinin receptor; conditions: [3H] des-arg10 kallidin, CHO membranes, Cheng-Prusoff; read-out: binding Ki's to the hB1 receptor
T2 construct: expressed in transfected cells; host or cells: CHO-d-AQN cells (membranes)
T2 sequence (P46663 1-353): T1 sequence (P46663 1-353)

Molecule | IC50 [1] | Ki [2]
O=C(CC1CCCCN1S(=O)(=O)c1cccc(C(F)(F)F)c1)N[C@@H]1CCOc2cc(CN3CCCCC3)ccc21 (mixture of isomers) [Example 1, N-(7-Piperidin-1-ylmethyl-chroman-4-(R)-yl)-2-[1-(3-trifluoromethyl-benzenesulfonyl)-piperidin-2-yl]-acetamide] | < 0.1 µM | < 0.1 µM
Cc1cc(C)c(S(=O)(=O)N2c3ccccc3CCC2CC(=O)NC2CCCc3cc(CN4CCCCC4)ccc32)c(C)c1 (stereo in doubt) [Example 3ac, N-((1R)-6-(1-piperidinylmethyl)-1,2,3,4-tetrahydro-1-naphthalenyl)-2-((2S)-1-((2,4,6-trimethylphenyl)sulfonyl)-1,2,3,4-tetrahydro-2-quinolinyl)acetamide] | < 0.1 µM | 
CC(CN1CCCCC1)c1ccc2c(c1)CCC[C@H]2NC(=O)C[C@@H]1CCCCN1S(=O)(=O)c1cccc(C(F)(F)F)c1 (mixture of isomers) [Example 360, N-((1R)-6-((1S)-1-methyl-2-(1-piperidinyl)ethyl)-1,2,3,4-tetrahydro-1-naphthalenyl)-2-((2S)-1-((3-(trifluoromethyl)phenyl)sulfonyl)-2-piperidinyl)acetamide] | < 0.1 µM | 
O=C(C[C@@H]1CCCCN1S(=O)(=O)c1cccc(C(F)(F)F)c1)N[C@@H]1CCCc2cc(CNC3CC3)ccc21 [Example 3as, N-((1R)-6-((cyclopropylamino)methyl)-1,2,3,4-tetrahydro-1-naphthalenyl)-2-((2S)-1-((3-(trifluoromethyl)phenyl)sulfonyl)-2-piperidinyl)acetamide] | < 0.1 µM | 
O=C(C[C@H]1c2ccccc2CCN1S(=O)(=O)c1cccc(C(F)(F)F)c1)N[C@@H]1CCOc2cc(CN3CCOCC3)ccc21 [Example 347, N-((4R)-7-(4-Morpholinylmethyl)-3,4-dihydro-2H-chromen-4-yl)-2-((1S)-2-((3-(trifluoromethyl)phenyl)sulfonyl)-1,2,3,4-tetrahydro-1-isoquinolinyl)acetamide] | < 0.1 µM | 
O=C(C[C@H]1CCCCN1S(=O)(=O)c1cccc(C(F)(F)F)c1)N[C@@H]1CCOc2cc(CN3CCCCC3)ccc21 [Example 351, N-((4R)-7-(1-Piperidinylmethyl)-3,4-dihydro-2H-chromen-4-yl)-2-((2R)-1-((3-(trifluoromethyl)phenyl)sulfonyl)-2-piperidinyl)acetamide] | < 0.1 µM | 
CC(C)(C)NCc1ccc2c(c1)CCC[C@H]2NC(=O)C[C@@H]1CCCCN1S(=O)(=O)c1ccc(Cl)c(Cl)c1 [Example 3ae, 2-((2S)-1-((3,4-dichlorophenyl)sulfonyl)-2-piperidinyl)-N-((1R)-6-(((1,1-dimethylethyl)amino)methyl)-1,2,3,4-tetrahydro-1-naphthalenyl)acetamide] | < 0.1 µM | 
O=C(CC1CCCCN1S(=O)(=O)c1ccc2ccccc2c1)N[C@@H]1CCOc2cc(CN3CCCCC3)ccc21 (mixture of isomers) [Example 2, 2-[1-(Naphthalene-2-sulfonyl)-piperidin-2-yl]-N-(7-piperidin-1-ylmethyl-chroman-4-(R)-yl)-acetamide] | < 0.1 µM | < 0.1 µM
NC(=O)C1CCCN(Cc2ccc3c(c2)CCC[C@H]3NC(=O)C[C@@H]2CCCCN2S(=O)(=O)c2cccc(C(F)(F)F)c2)C1 (stereo partly drawn) [Example 3bu, 1-(((5R)-5-((((2S)-1-((3-(trifluoromethyl)phenyl)sulfonyl)-2-piperidinyl)acetyl)amino)-5,6,7,8-tetrahydro-2-naphthalenyl)methyl)-3-piperidinecarboxamide] | < 0.1 µM | 
O=C(C[C@H]1c2ccccc2CCN1S(=O)(=O)c1cccc(C(F)(F)F)c1)N[C@@H]1CCOc2cc(CN3C4CCC3CC4)ccc21 [Example 349, N-((4R)-7-(7-Azabicyclo[2.2.1]hept-7-ylmethyl)-3,4-dihydro-2H-chromen-4-yl)-2-((1S)-2-((3-(trifluoromethyl)phenyl)sulfonyl)-1,2,3,4-tetrahydro-1-isoquinolinyl)acetamide] | < 0.1 µM | 
O=C(C[C@@H]1CCCN1S(=O)(=O)c1cccc(C(F)(F)F)c1)N[C@@H]1CCOc2cc(CN3CCC(F)(F)CC3)ccc21 [Example 333, N-((4R)-7-((4,4-Difluoro-1-piperidinyl)methyl)-3,4-dihydro-2H-chromen-4-yl)-2-((2S)-1-((3-(trifluoromethyl)phenyl)sulfonyl)-2-pyrrolidinyl)acetamide] | < 0.1 µM | 
C=C(CN1CCCCC1)c1ccc2c(c1)CCC[C@H]2NC(=O)C[C@@H]1CCCCN1S(=O)(=O)c1cccc(C(F)(F)F)c1 [Example 358, N-((1R)-6-(1-(1-piperidinylmethyl)ethenyl)-1,2,3,4-tetrahydro-1-naphthalenyl)-2-((2S)-1-((3-(trifluoromethyl)phenyl)sulfonyl)-2-piperidinyl)acetamide] | < 0.1 µM | 
O=C(C[C@@H]1CCCN1S(=O)(=O)c1cccc(C(F)(F)F)c1)N[C@@H]1CCOc2cc(CN3CCCCC3)c(Cl)cc21 [Example 339, N-((4R)-6-Chloro-7-(1-piperidinylmethyl)-3,4-dihydro-2H-chromen-4-yl)-2-((2S)-1-((3-(trifluoromethyl)phenyl)sulfonyl)-2-pyrrolidinyl)acetamide] | < 0.1 µM | 
N-((1R)-6-(1-piperidinylmethyl)-1,2,3,4-tetrahydro-1-naphthalenyl)-2-((2S)-1-((3-(trifluoromethyl)phenyl)sulfonyl)-2-pyrrolidinyl)acetamide [Example 3q] | < 0.1 µM | 
O=C(C[C@@H]1CCCN1S(=O)(=O)c1cccc(C(F)(F)F)c1)N[C@@H]1CCOc2cc(CN3CCC(F)CC3)ccc21 [Example 332, N-((4R)-7-((4-Fluoro-1-piperidinyl)methyl)-3,4-dihydro-2H-chromen-4-yl)-2-((2S)-1-((3-(trifluoromethyl)phenyl)sulfonyl)-2-pyrrolidinyl)acetamide] | < 0.1 µM | 
O=C(CC1c2ccccc2CCN1S(=O)(=O)c1cccc(C(F)(F)F)c1)N[C@@H]1CCOc2cc(CN3CCCCC3)ccc21 (stereo partly drawn) [Example 340, N-((4R)-7-(1-Piperidinylmethyl)-3,4-dihydro-2H-chromen-4-yl)-2-((3R)-2-((3-(trifluoromethyl)phenyl)sulfonyl)-1,2,3,4-tetrahydro-3-isoquinolinyl)acetamide] | < 0.1 µM | 
O=C(C[C@@H]1CCCN1S(=O)(=O)c1ccc2ccccc2c1)N[C@@H]1CCOc2cc(CN3CCCCC3)ccc21 [Example 3, 2-[1-(Naphthalene-2-sulfonyl)-pyrrolidin-2-(L)-yl]-N-(7-piperidin-1-ylmethyl-chroman-4-(R)-yl)-acetamide] | < 0.1 µM | < 0.1 µM
O=C(C[C@H]1c2ccccc2CCN1S(=O)(=O)c1cccc(C(F)(F)F)c1)N[C@@H]1CCOc2cc(CN3CCCCC3)ccc21 [Example 345, N-((4R)-7-(1-Piperidinylmethyl)-3,4-dihydro-2H-chromen-4-yl)-2-((1S)-2-((3-(trifluoromethyl)phenyl)sulfonyl)-1,2,3,4-tetrahydro-1-isoquinolinyl)acetamide] | < 0.1 µM | 
O=C(C[C@@H]1CCCCN1S(=O)(=O)c1ccc2ccccc2c1)N[C@@H]1CCOc2cc(CN3CCCCC3)ccc21 [Example 336, 2-((2S)-1-(2-Naphthalenylsulfonyl)-2-piperidinyl)-N-((4R)-7-(1-piperidinylmethyl)-3,4-dihydro-2H-chromen-4-yl)acetamide] | < 0.1 µM | 
O=C(C[C@@H]1CCCCN1S(=O)(=O)c1cccc(C(F)(F)F)c1)N[C@@H]1CCOc2cc(CN3CCCCC3)ccc21 [Example 350, N-((4R)-7-(1-Piperidinylmethyl)-3,4-dihydro-2H-chromen-4-yl)-2-((2S)-1-((3-(trifluoromethyl)phenyl)sulfonyl)-2-piperidinyl)acetamide] | < 0.1 µM | 
